Publication PMC9151573
These are yes or no findings as the source states them, for the method shown. Binding seen in cells or lysates may run through a third protein. Some binding calls cover weakened binding; strength is not graded here.

Target: HA-p53 (human) (UniProt P04637)
Assay: co-IP; p53HA overexpressed in HepG2 p53KO cells, 24 h growth or starvation medium, precipitated with anti-HA beads, SORBS1 detected by Western blot

binding: binds
B1: Sorbin and SH3 domain-containing protein 1 (SORBS1) (protein, UniProt Q9BX66 1-1292)
chain: MSSECDGGSKAVMNGLAPGSNGQDKATADPLRARSISAVKIIPVKTVKNASGLVLPTDMDLTKICTGKGAVTLRASSSYRETPSSSPASPQETRQHESKPGLEPEPSSADEWRLSSSADANGNAQPSSLAAKGYRSVHPNLPSDKSQDATSSSAAQPEVIVVPLYLVNTDRGQEGTARPPTPLGPLGCVPTIPATASAASPLTFPTLDDFIPPHLQRWPHHSQPARASGSFAPISQTPPSFSPPPPLVPPAPEDLRRVSEPDLTGAVSSTDSSPLLNEVSSSLIGTDSQAFPSVSKPSSAYPSTTIVNPTIVLLQHNREQQKRLSSLSDPVSERRVGEQDSAPTQEKPTSPGKAIEKRAKDDSRRVVKSTQDLSDVSMDEVGIPLRNTERSKDWYKTMFKQIHKLNRDTPEENPYFPTYKFPELPEIQQTSEEDNPYTPTYQFPASTPSPKSEDDDSDLYSPRYSFSEDTKSPLSVPRSKSEMSYIDGEKVVKRSATLPLPARSSSLKSSSERNDWEPPDKKVDTRKYRAEPKSIYEYQPGKSSVLTNEKMSRDISPEEIDLKNEPWYKFFSELEFGKPPPKKIWDYTPGDCSILPREDRKTNLDKDLSLCQTELEADLEKMETLNKAPSANVPQSSAISPTPEISSETPGYIYSSNFHAVKRESDGAPGDLTSLENERQIYKSVLEGGDIPLQGLSGLKRPSSSASTKDSESPRHFIPADYLESTEEFIRRRHDDKEKLLADQRRLKREQEEADIAARRHTGVIPTHHQFITNERFGDLLNIDDTAKRKSGSEMRPARAKFDFKAQTLKELPLQKGDIVYIYKQIDQNWYEGEHHGRVGIFPRTYIELLPPAEKAQPKKLTPVQVLEYGEAIAKFNFNGDTQVEMSFRKGERITLLRQVDENWYEGRIPGTSRQGIFPITYVDVIKRPLVKNPVDYMDLPFSSSPSRSATASPQFSSHSKLITPAPSSLPHSRRALSPEMHAVTSEWISLTVGVPGRRSLALTPPLPPLPEASIYNTDHLALSPRASPSLSLSLPHLSWSDRPTPRSVASPLALPSPHKTYSLAPTSQASLHMNGDGGVHTPSSGIHQDSFLQLPLGSSDSVISQLSDAFSSQSKRQPWREESGQYERKAERGAGERGPGGPKISKKSCLKPSDVVRCLSTEQRLSDLNTPEESRPGKPLGSAFPGSEAEQTERHRGGEQAGRKAARRGGSQQPQAQQRRVTPDRSQTSQDLFSYQALYSYIPQNDDELELRDGDIVDVMEKCDDGWFVGTSRRTKQFGTFPGNYVKPLYL
